Laboratory results published in the supplement of paper PMC6078165.
± gives the standard deviation of the averaged measurements. Values are relative to the signal before dosing, not to a vehicle control; the signal also falls without drug.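 Fibroblast labels name human fibroblasts: mostly primary ones from tissues such as uterus (C12385, HUF), lung (H6013), bone (Hs27A), adrenal (HADF) and skin (WS1), plus mammary HMF and breast cancer-associated Hs343T. The cancer cells are basal-like or mesenchymal-like triple-negative breast cancer lines. The paper calls a changed response a hit when it shifts by more than 3x the replicate standard deviation. The tissue of the other fibroblasts is not given here.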

Test system: MDAMB468
Assay: relative JC-1 red fluorescence (viability) vs pre-drug, coculture with fibroblast (fraction); higher = more viable cancer cells
Experimental: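 JC-1 labelled TNBC cells cocultured 1:1 (1,500 cells each) with CellTrace Violet stained primary or stromal fibroblasts in 384-well plates in FluoroBrite medium, treated with one of 42 anticancer drugs at 0.1, 1, 10 or 100 uM. JC-1 red fluorescence (mitochondrial integrity in cancer cells only) was read by plate reader every 8 h for 72 h. Values are normalised to each well's pre-drug value. The stock of one drug was tenfold lower, so its dose labels may be too high.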

CCN(CC)CCNC(=O)c1c(C)[nH]c(/C=C2\C(=O)Nc3ccc(F)cc32)c1C [Sunitinib]
relative JC-1 red fluorescence
Details | 8 h | 16 h | 24 h | 32 h | 40 h | 48 h | 56 h | 64 h | 72 h
10 µM, coculture fibroblast: C12385 | 0.824 ± 0.018 | 0.704 ± 0.016 | 0.677 ± 0.046 | 0.633 ± 0.044 | 0.583 ± 0.064 | 0.571 ± 0.071 | 0.517 ± 0.083 | 0.47 ± 0.091 | 0.431 ± 0.092
10 µM, coculture fibroblast: H6013 | 0.8977 ± 0.0076 | 0.743 ± 0.061 | 0.654 ± 0.053 | 0.507 ± 0.034 | 0.404 ± 0.045 | 0.369 ± 0.065 | 0.331 ± 0.063 | 0.308 ± 0.065 | 0.246 ± 0.064
10 µM, coculture fibroblast: H6019 | 0.841 ± 0.042 | 0.73 ± 0.051 | 0.67 ± 0.0074 | 0.568 ± 0.018 | 0.501 ± 0.011 | 0.454 ± 0.036 | 0.399 ± 0.027 | 0.36 ± 0.027 | 0.335 ± 0.036
10 µM, coculture fibroblast: H6076 | 0.975 ± 0.0069 | 0.743 ± 0.12 | 0.585 ± 0.073 | 0.495 ± 0.0085 | 0.382 ± 0.024 | 0.344 ± 0.043 | 0.293 ± 0.058 | 0.271 ± 0.068 | 0.267 ± 0.059
10 µM, coculture fibroblast: H6231 | 0.8354 ± 0.0044 | 0.6583 ± 0.0019 | 0.419 ± 0.051 | 0.366 ± 0.055 | 0.268 ± 0.053 | 0.237 ± 0.052 | 0.2 ± 0.048 | 0.165 ± 0.05 | 0.159 ± 0.051
10 µM, coculture fibroblast: HADF | 0.881 ± 0.037 | 0.836 ± 0.047 | 0.687 ± 0.011 | 0.487 ± 0.048 | 0.395 ± 0.031 | 0.363 ± 0.026 | 0.313 ± 0.024 | 0.289 ± 0.024 | 0.219 ± 0.015
10 µM, coculture fibroblast: HCFa | 0.9115 ± 0.0081 | 0.8957 ± 0.0063 | 0.838 ± 0.027 | 0.833 ± 0.043 | 0.748 ± 0.13 | 0.701 ± 0.2 | 0.6 ± 0.24 | 0.553 ± 0.26 | 0.486 ± 0.26
10 µM, coculture fibroblast: HCPF | 0.8301 ± 0.0022 | 0.973 ± 0.031 | 0.729 ± 0.039 | 0.541 ± 0.053 | 0.364 ± 0.061 | 0.311 ± 0.05 | 0.26 ± 0.046 | 0.235 ± 0.052 | 0.222 ± 0.05
10 µM, coculture fibroblast: HHSteC | 0.9363 ± 0.0063 | 0.753 ± 0.092 | 0.702 ± 0.1 | 0.531 ± 0.069 | 0.378 ± 0.005 | 0.345 ± 0.0035 | 0.296 ± 0.0084 | 0.266 ± 0.0068 | 0.212 ± 0.011
10 µM, coculture fibroblast: HMF | 0.852 ± 0.029 | 0.927 ± 0.019 | 0.764 ± 0.12 | 0.615 ± 0.15 | 0.424 ± 0.097 | 0.369 ± 0.081 | 0.292 ± 0.049 | 0.257 ± 0.041 | 0.243 ± 0.035
10 µM, coculture fibroblast: HPFa | 0.948 ± 0.0098 | 0.828 ± 0.081 | 0.759 ± 0.055 | 0.656 ± 0.043 | 0.533 ± 0.019 | 0.506 ± 0.066 | 0.418 ± 0.037 | 0.384 ± 0.022 | 0.296 ± 0.014
10 µM, coculture fibroblast: HUF | 0.8692 ± 0.00089 | 0.674 ± 0.058 | 0.575 ± 0.042 | 0.402 ± 0.0091 | 0.308 ± 0.036 | 0.275 ± 0.028 | 0.221 ± 0.033 | 0.196 ± 0.026 | 0.171 ± 0.024
10 µM, coculture fibroblast: Hs5 | 0.841 ± 0.065 | 0.7632 ± 0.0051 | 0.638 ± 0.043 | 0.52 ± 0.058 | 0.368 ± 0.022 | 0.317 ± 0.011 | 0.2731 ± 0.0027 | 0.239 ± 0.0072 | 0.2289 ± 0.0015
10 µM, coculture fibroblast: Hs27A | 0.92 ± 0.032 | 0.869 ± 0.011 | 0.767 ± 0.042 | 0.679 ± 0.053 | 0.486 ± 0.057 | 0.418 ± 0.021 | 0.363 ± 0.019 | 0.33 ± 0.014 | 0.257 ± 0.014
10 µM, coculture fibroblast: Hs343T | 0.922 ± 0.013 | 0.747 ± 0.11 | 0.5232 ± 0.0012 | 0.437 ± 0.0056 | 0.313 ± 0.0056 | 0.272 ± 0.0077 | 0.229 ± 0.0068 | 0.2 ± 0.0083 | 0.1823 ± 0.00075
10 µM, coculture fibroblast: WS1 | 0.827 ± 0.054 | 0.74868 ± 0.00029 | 0.564 ± 0.044 | 0.364 ± 0.015 | 0.288 ± 0.011 | 0.246 ± 0.0025 | 0.216 ± 0.0067 | 0.184 ± 0.0064 | 0.166 ± 0.013
100 µM, coculture fibroblast: C12385 | 0.634 ± 0.19 | 0.291 ± 0.1 | 0.255 ± 0.089 | 0.223 ± 0.08 | 0.196 ± 0.08 | 0.2 ± 0.069 | 0.169 ± 0.064 | 0.146 ± 0.058 | 0.134 ± 0.056
100 µM, coculture fibroblast: H6013 | 0.33 ± 0.01 | 0.252 ± 0.0066 | 0.229 ± 0.011 | 0.2054 ± 0.00091 | 0.19 ± 0.001 | 0.189 ± 0.011 | 0.155 ± 0.0093 | 0.14 ± 0.0077 | 0.105 ± 0.014
100 µM, coculture fibroblast: H6019 | 0.453 ± 0.41 | 0.306 ± 0.26 | 0.272 ± 0.22 | 0.255 ± 0.21 | 0.231 ± 0.2 | 0.252 ± 0.22 | 0.235 ± 0.21 | 0.23 ± 0.21 | 0.226 ± 0.22
100 µM, coculture fibroblast: H6076 | 0.403 ± 0.016 | 0.275 ± 0.056 | 0.261 ± 0.062 | 0.283 ± 0.073 | 0.234 ± 0.082 | 0.238 ± 0.086 | 0.207 ± 0.098 | 0.195 ± 0.11 | 0.223 ± 0.12
100 µM, coculture fibroblast: H6231 | 0.425 ± 0.11 | 0.257 ± 0.021 | 0.261 ± 0.038 | 0.305 ± 0.045 | 0.295 ± 0.06 | 0.318 ± 0.065 | 0.319 ± 0.075 | 0.325 ± 0.088 | 0.34 ± 0.09
100 µM, coculture fibroblast: HADF | 0.31 ± 0.037 | 0.225 ± 0.029 | 0.196 ± 0.031 | 0.177 ± 0.027 | 0.163 ± 0.028 | 0.163 ± 0.035 | 0.129 ± 0.033 | 0.113 ± 0.031 | 0.0827 ± 0.033
100 µM, coculture fibroblast: HCFa | 0.51 ± 0.046 | 0.283 ± 0.052 | 0.244 ± 0.053 | 0.215 ± 0.055 | 0.206 ± 0.053 | 0.208 ± 0.057 | 0.172 ± 0.058 | 0.144 ± 0.056 | 0.113 ± 0.05
100 µM, coculture fibroblast: HCPF | 0.513 ± 0.13 | 0.369 ± 0.058 | 0.327 ± 0.057 | 0.353 ± 0.062 | 0.291 ± 0.055 | 0.275 ± 0.045 | 0.234 ± 0.035 | 0.23 ± 0.029 | 0.218 ± 0.029
100 µM, coculture fibroblast: HHSteC | 0.386 ± 0.031 | 0.291 ± 0.064 | 0.265 ± 0.074 | 0.232 ± 0.076 | 0.217 ± 0.071 | 0.219 ± 0.079 | 0.183 ± 0.077 | 0.159 ± 0.072 | 0.123 ± 0.08
100 µM, coculture fibroblast: HMF | 0.38 ± 0.054 | 0.292 ± 0.028 | 0.265 ± 0.038 | 0.279 ± 0.051 | 0.23 ± 0.039 | 0.239 ± 0.045 | 0.215 ± 0.043 | 0.216 ± 0.035 | 0.207 ± 0.031
100 µM, coculture fibroblast: HPFa | 0.78 ± 0.071 | 0.325 ± 0.087 | 0.273 ± 0.09 | 0.227 ± 0.094 | 0.222 ± 0.092 | 0.225 ± 0.11 | 0.201 ± 0.1 | 0.185 ± 0.094 | 0.143 ± 0.081
100 µM, coculture fibroblast: HUF | 0.532 ± 0.13 | 0.244 ± 0.041 | 0.202 ± 0.016 | 0.163 ± 0.0094 | 0.14 ± 0.007 | 0.136 ± 0.004 | 0.104 ± 0.0037 | 0.0951 ± 0.0048 | 0.0886 ± 0.0012
100 µM, coculture fibroblast: Hs5 | 0.415 ± 0.1 | 0.237 ± 0.019 | 0.222 ± 0.012 | 0.216 ± 0.015 | 0.172 ± 0.0081 | 0.16 ± 0.0071 | 0.141 ± 0.015 | 0.123 ± 0.0026 | 0.14 ± 0.0019
100 µM, coculture fibroblast: Hs27A | 0.355 ± 0.0036 | 0.237 ± 0.019 | 0.198 ± 0.022 | 0.181 ± 0.034 | 0.172 ± 0.033 | 0.178 ± 0.04 | 0.152 ± 0.045 | 0.14 ± 0.046 | 0.122 ± 0.046
100 µM, coculture fibroblast: Hs343T | 0.375 ± 0.08 | 0.285 ± 0.059 | 0.278 ± 0.057 | 0.289 ± 0.053 | 0.243 ± 0.038 | 0.246 ± 0.035 | 0.23 ± 0.033 | 0.234 ± 0.026 | 0.225 ± 0.017
100 µM, coculture fibroblast: WS1 | 0.347 ± 0.14 | 0.231 ± 0.07 | 0.208 ± 0.061 | 0.183 ± 0.052 | 0.159 ± 0.05 | 0.159 ± 0.045 | 0.137 ± 0.033 | 0.124 ± 0.033 | 0.12 ± 0.036
